Experiment [1] deals with T1, Natural Fel d 1 (NA-FD1-1, Indoor Biotechnologies), natural Fel d 1 antigen purified from cat hair (cat (Felis domesticus / Felis catus)) (UniProt P30438+P30440).
T1 sequence (looked up) 1: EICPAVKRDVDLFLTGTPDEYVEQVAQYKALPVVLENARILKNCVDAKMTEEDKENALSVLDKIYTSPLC
T1 sequence (looked up) 2: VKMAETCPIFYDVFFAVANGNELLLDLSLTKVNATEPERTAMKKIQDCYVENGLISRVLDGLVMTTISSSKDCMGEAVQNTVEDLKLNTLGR
Briefly: chequerboard sandwich ELISA, Fel d 1 200 ng/ml; MAb 2 as capture (also as HRP conjugate 2). In general terms: ELISA stands for enzyme-linked immunosorbent assay.

The target in experiment [2] is T1, Natural Fel d 1 (NA-FD1-1, Indoor Biotechnologies), natural Fel d 1 antigen purified from cat hair (cat (Felis domesticus / Felis catus)). The experiment in a line: sandwich ELISA standard curves, Fel d 1 200 to 0.098 ng/ml.
For experiment [3] the target is unchanged. The experiment in a line: ELISA.
The target is the same in experiment [4]. Briefly: chequerboard sandwich ELISA, Fel d 1 200 ng/ml; MAb 20 as capture (also as HRP conjugate 20).
The target is the same in experiment [5]. Briefly: chequerboard sandwich ELISA, Fel d 1 200 ng/ml; MAb 9 as capture.
Experiment [6] has the same target. Briefly: chequerboard sandwich ELISA, Fel d 1 200 ng/ml; MAb 18 as HRP conjugate (detect).

Results are given in words; binding and its absence hold for the method and conditions named. Some entries that bind do so weakly or less than the wild type.

B1: Fel d 1 MAb2 (cAb10204, clone 2291.014.055.067) (antibody, mouse IgG1, kappa, V domains shown)
VH: EVKLMESGGGLVKPGGSLKLSCAASGFTFSSYDMSWVRQTPEKRLEWVATISSGGTYTYYPDSLKGRFTISRDNARNTLYLQMSSLRSEDTALFYCARLLRTYAMDYWGQGTSVTVSS
VL: DIQMNQSPSSLSASLGDTITITCHASQNIIVWLNWYQQKPGNIPKLLIYKASNLHTGVPSRFSGSGSGTGFTLTISSLQPEDIATYYCQQGQSYHTWTFGGGTKLEIKR
For B1, the binding result in experiment [1], in experiment [2] and in experiment [3] was “binds” throughout.

B2: Fel d 1 MAb20 (cAb10207, clone 2297.179.089) (antibody, mouse IgG1, kappa, V domains shown)
VH: QVQLQQPGTELVRPGASVKLSCKASGYTFTSYWINWVKQRPGQGLEWIGNIYPSDSYTNYNQKFKDKATLTVDKSSSTAYMQLSSPTSDDSAVYYCTRRGNYGNLYYFDYWGQGTTLTVSS
VL: NIVMTQSPKSMSMSVGERVTLSCKASENVGSYVFWYQQKPDQSPKLLIYGASNRYTGVPDRFTGSRSATDFTLTISNVQAEDLADYHCGQSYSYPLTFGAGTKLELKR
Turning to B2, the binding result in experiment [4] and in experiment [2] was “binds” in each case.

B3: Fel d 1 MAb9 (cAb10205, clone 2293.254.030) (antibody, mouse IgG1, kappa, V domains shown)
VH: QVQLQQPGAELVKPGASVKLSCKASGYTFTSYWMYWVKQRPGQGLEWIGEINPSNGRTNYNEKFKTKATLTVDKSSSTAYMQLSSLTSEDSAVYYCARRATMIGGFAYWGQGTLVTVSA
VL: DIVMTQSPSSLTVTTGEKVTMNCKSSQSLLNSANQKNYLTWHQQKPGQPPKLLIYWASTRESGVPDRFTGSGSGTDFTLTISSVQAEDLAVYYCQNDYSFPFTFGSGTKLEIKR
As for B3, the binding result in experiment [5] and in experiment [3] was “binds” throughout.

B4: Fel d 1 MAb18 (cAb10206, clone 2297.167.064) (antibody, mouse IgG1, kappa, V domains shown)
VH: QGQMQQSGAELVKPGASVKLSCKTSGFTFSSSYISWLKQKPGQSLEWIAWIYAGTGGTTYNQRFTGKAQLTVDSSSSTAYMHFSSLTTDDSAIYYCARHYGNPPAWFAYWGQGTLVTVSA
VL: DIQMTQSPASLSASVGETVTITCRASGNIHNYLAWFQQRQGKSPQLLVYNAETLADGVPSRFSGSGSGTQYSLKISSLQPEDFGSYFCQHFWSRPPTFGGGTKLEIKR
With B4, the binding result in experiment [6] and in experiment [2] was “binds” in each case.

Source of the values: patent US20250296993A1.
